Measured values reported in patent EP0406111A1, “Substituted arylamines and heteroarylamines, process for their preparation and pharmaceutical composition containing them” (SOCIETE DE CONSEILS DE […] D'APPLICATIONS SCIENTIFIQUES …, priority 1989, dated 1991).

Target: récepteur de la PCP
Test: Competition binding at the (3H)TCP sites on rat brain homogenates (Example 36)
Conditions: 1 nM (3H)TCP, 30 min at 25°C
From the text: Exemple 36 : Affinité des composés pour les sites de liaison de la (³H)TCP sur les homogénats de cerveaux de rats.
Dans cet essai on mesure les affinités des composés pour le récepteur de la PCP par des expériences de compétition sur des homogénats de cerveaux de rats. Le ligand radioactif utilisé est la (³H)TCP à une activité spécifique de 62 Ci/mmol (Service des Molécules Marquées, CEA Saclay France).
Les cerveaux de rats (sans le cervelet et le tronc cérébral) sont homogénéisés à l'ultra turax dans 20 volumes de tampon Hepes-Tris 50 mM, pH 7,7. Après centrifugation pendant 30 min à 15000 g le culot est repris dans le même volume de tampon et recentrifugé dans les mêmes conditions. Le culot final est repris dans du tampon Hepes-Tris 50 mM, pH 7,7 de façon à obtenir une concentration en protéine de 6 à 8 mg/ml.
Les expériences de compétition sont réalisées en incubant pendant 30 min les membranes (concentration finale en protéine : 0,6 à 0,8 mg/ml) en milieu tampon 5 mM Hepes-Tris, pH 7,7 à 25°C, en présence d'une concentration fixe de ligand tritié (1 nM)et de concentrations croissantes de composés à tester. Trois échantillons de 600 µL sont ensuite filtrés sur filtres de fibres de verre GF/B prétraités par du PEI (polyéthylénimine) à 0,1%. […]

Work on `O=C(CCCN1CCC(O)(c2ccc(Cl)cc2)CC1)c1ccc(F)cc1` [Halopéridol, reference compound] yielded an IC50 of 520 µM.
